# Assay results from US5446157A, “Boron difluoride compounds useful in photodynamic therapy and production of laser light” (priority 1993, dated 1995).
# Tests used:
# [1] = P-BF2 dyes dispersed in acrylic co-polymer (solid-state laser); details: polymer matrix, 5 parts methyl methacrylate and 1 part hydroxypropyl acrylate; PMDEP-BF2 10^-4 M
# Text: Any laser dye of the present invention may be substituted for the dye in any of the examples of that incorporated patent. The matrix generally includes solid polymeric host laser rods prepared using bulk polymerization of acrylic acid ester comonomers.
# [2] = 2 × 10^-4 M in ethanol; Ref [2] / Shah et al. 1990; cited from earlier work
# [3] = Power efficiency in Candela flashlamp dye laser; details: Candela LFRDL 20 linear flashlamp dye laser
# [4] = Continuous wave operation with argon ion pump laser: power efficiency; details: CW, 5 watts all lines 457.9-514.5 nm
smiles,measurement,setting,value
"CCC1=C(C)C2=C(C)c3c(C)c(CC)c(C)n3[B-](F)(F)[N+]2=C1C [Compound 7c, 1,3,5,7,8-pentamethyl-2,6-diethylpyrromethene-BF2 complex]",power efficiency,[1],88%
same,λlas,[2],570 nm
same,power efficiency of R-6G (relative),[3],173%
same,power efficiency / power output,[4],37%
